{"source": "PubChem BioAssay AID652272 (Drosophila RNAi Screening Center, 2013)", "aim": "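Finding fly genes that regulate Hedgehog signal transduction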 (primary screen)", "cell system": "Drosophila clone 8 (Cl8) cells", "knock-down reagent": "long dsRNA against Drosophila genes", "measured": "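Plate reader light from a firefly reporter under a ptc promoter fragment that responds to Hedgehog, with Renilla light as transfection reference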", "direction": "firefly Hh reporter signal: higher = more ptc reporter light; Renilla reference signal: higher = more Renilla control light", "call rule": "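Called a hit if the two-replicate mean z-score lies below -2 or above +3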", "meaning of the calls": "active = hit: reporter lowered or raised; inactive = not a hit", "note": "The screen tested about 21,000 reagents; below is a random part of those with a known target gene and a result. In the full data, 503 (2.4%) are marked active. 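Raw plate light values, not normalised; calls rest on replicate z-scores that were not deposited; hits include reporter decreases as well as increases.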 Reagent sequences are not shown. Not given: the amount of reagent, the time to read-out."}
{"gene": "t-Grip128", "DRSC id": "DRSC07853", "firefly Hh reporter signal, replicate 1": 1.33e5, "firefly Hh reporter signal, replicate 2": 3.13e5, "Renilla reference signal, replicate 1": 4493, "Renilla reference signal, replicate 2": 12400, "Call": "inactive"}
{"gene": "CG14384", "DRSC id": "DRSC14842", "firefly Hh reporter signal, replicate 1": 80658, "firefly Hh reporter signal, replicate 2": 73019, "Renilla reference signal, replicate 1": 1443, "Renilla reference signal, replicate 2": 1602, "Call": "inactive"}
{"gene": "Atg2", "DRSC id": "DRSC08273", "firefly Hh reporter signal, replicate 1": 1.17e5, "firefly Hh reporter signal, replicate 2": 75187, "Renilla reference signal, replicate 1": 5030, "Renilla reference signal, replicate 2": 2260, "Call": "inactive"}
{"gene": "Ser8", "DRSC id": "DRSC06891", "firefly Hh reporter signal, replicate 1": 67530, "firefly Hh reporter signal, replicate 2": 48744, "Renilla reference signal, replicate 1": 1776, "Renilla reference signal, replicate 2": 3634, "Call": "inactive"}
{"gene": "CG14495", "DRSC id": "DRSC06466", "firefly Hh reporter signal, replicate 1": 60705, "firefly Hh reporter signal, replicate 2": 64028, "Renilla reference signal, replicate 1": 1536, "Renilla reference signal, replicate 2": 4587, "Call": "inactive"}
{"gene": "CG43292", "DRSC id": "DRSC08883", "firefly Hh reporter signal, replicate 1": 7.81e5, "firefly Hh reporter signal, replicate 2": 1.66e5, "firefly Hh reporter signal, replicate 3": 1.19e5, "Renilla reference signal, replicate 1": 4994, "Renilla reference signal, replicate 2": 3914, "Call": "inactive"}
{"gene": "CG18404", "DRSC id": "DRSC15323", "firefly Hh reporter signal, replicate 1": 84080, "firefly Hh reporter signal, replicate 2": 1.14e5, "Renilla reference signal, replicate 1": 2450, "Renilla reference signal, replicate 2": 3111, "Call": "inactive"}
{"gene": "eIF4E6", "DRSC id": "DRSC14853", "firefly Hh reporter signal, replicate 1": 1.25e5, "firefly Hh reporter signal, replicate 2": 1.03e5, "Renilla reference signal, replicate 1": 4073, "Renilla reference signal, replicate 2": 2054, "Call": "inactive"}
{"gene": "Aasdh", "DRSC id": "DRSC03467", "firefly Hh reporter signal, replicate 1": 86752, "firefly Hh reporter signal, replicate 2": 59809, "Renilla reference signal, replicate 1": 2154, "Renilla reference signal, replicate 2": 5413, "Call": "inactive"}
{"gene": "EcR", "DRSC id": "DRSC04906", "firefly Hh reporter signal, replicate 1": 1.01e5, "firefly Hh reporter signal, replicate 2": 75266, "Renilla reference signal, replicate 1": 1825, "Renilla reference signal, replicate 2": 5911, "Call": "inactive"}
{"gene": "EcR", "DRSC id": "DRSC04910", "firefly Hh reporter signal, replicate 1": 94053, "firefly Hh reporter signal, replicate 2": 1.07e5, "Renilla reference signal, replicate 1": 3536, "Renilla reference signal, replicate 2": 4523, "Call": "inactive"}
{"gene": "ppk27", "DRSC id": "DRSC08168", "firefly Hh reporter signal, replicate 1": 1.12e5, "firefly Hh reporter signal, replicate 2": 97488, "Renilla reference signal, replicate 1": 4048, "Renilla reference signal, replicate 2": 6438, "Call": "inactive"}
{"gene": "PolA1", "DRSC id": "DRSC16640", "firefly Hh reporter signal, replicate 1": 87050, "firefly Hh reporter signal, replicate 2": 72263, "Renilla reference signal, replicate 1": 4016, "Renilla reference signal, replicate 2": 2807, "Call": "inactive"}
{"gene": "CG15712", "DRSC id": "DRSC06583", "firefly Hh reporter signal, replicate 1": 1.18e5, "firefly Hh reporter signal, replicate 2": 64444, "Renilla reference signal, replicate 1": 3066, "Renilla reference signal, replicate 2": 5043, "Call": "inactive"}
{"gene": "CG7900", "DRSC id": "DRSC16336", "firefly Hh reporter signal, replicate 1": 1.54e5, "firefly Hh reporter signal, replicate 2": 7.90e5, "firefly Hh reporter signal, replicate 3": 1.64e5, "Renilla reference signal, replicate 1": 4784, "Renilla reference signal, replicate 2": 5526, "Call": "inactive"}
{"gene": "CG13325", "DRSC id": "DRSC06362", "firefly Hh reporter signal, replicate 1": 95229, "firefly Hh reporter signal, replicate 2": 53713, "Renilla reference signal, replicate 1": 4247, "Renilla reference signal, replicate 2": 1405, "Call": "inactive"}
{"gene": "CG15601", "DRSC id": "DRSC19670", "firefly Hh reporter signal, replicate 1": 60317, "firefly Hh reporter signal, replicate 2": 1.56e5, "Renilla reference signal, replicate 1": 2499, "Renilla reference signal, replicate 2": 7590, "Call": "inactive"}
{"gene": "CG13884", "DRSC id": "DRSC08354", "firefly Hh reporter signal, replicate 1": 65177, "firefly Hh reporter signal, replicate 2": 44727, "Renilla reference signal, replicate 1": 1947, "Renilla reference signal, replicate 2": 3845, "Call": "inactive"}
{"gene": "CG12310", "DRSC id": "DRSC09878", "firefly Hh reporter signal, replicate 1": 1.06e5, "Renilla reference signal, replicate 1": 4354, "Renilla reference signal, replicate 2": 2804, "Call": "inactive"}
{"gene": "CG4328", "DRSC id": "DRSC10410", "firefly Hh reporter signal, replicate 1": 57860, "firefly Hh reporter signal, replicate 2": 13592, "firefly Hh reporter signal, replicate 3": 18902, "Renilla reference signal, replicate 1": 2787, "Renilla reference signal, replicate 2": 1611, "Call": "inactive"}
{"gene": "TrissinR", "DRSC id": "DRSC02334", "firefly Hh reporter signal, replicate 1": 1.39e5, "firefly Hh reporter signal, replicate 2": 75440, "Renilla reference signal, replicate 1": 3088, "Renilla reference signal, replicate 2": 5970, "Call": "inactive"}
{"gene": "TrissinR", "DRSC id": "DRSC02335", "firefly Hh reporter signal, replicate 1": 74176, "firefly Hh reporter signal, replicate 2": 38880, "Renilla reference signal, replicate 1": 2484, "Renilla reference signal, replicate 2": 5642, "Call": "inactive"}
{"gene": "TrissinR", "DRSC id": "DRSC02336", "firefly Hh reporter signal, replicate 1": 82224, "firefly Hh reporter signal, replicate 2": 53531, "Renilla reference signal, replicate 1": 2626, "Renilla reference signal, replicate 2": 4641, "Call": "inactive"}
